Measurements as given in patent publication US11958868B2, “Methods of using metal complexes to promote wound healing” (University of Macau, priority 2022, dated 2024).
At least one compound was matched to its structure with a doubt left.

Chains of the proteins cited; added tags and fusions are not shown.
UniProt P40337, whole entry: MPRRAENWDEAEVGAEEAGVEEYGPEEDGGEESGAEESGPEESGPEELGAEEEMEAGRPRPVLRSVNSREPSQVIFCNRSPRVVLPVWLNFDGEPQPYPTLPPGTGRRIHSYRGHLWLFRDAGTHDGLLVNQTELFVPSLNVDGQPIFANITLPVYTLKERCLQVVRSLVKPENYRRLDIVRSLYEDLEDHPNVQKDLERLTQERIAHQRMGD

Biological target: T1, human recombinant VHL:ElonginB:ElonginC (VBC) complex (Homo sapiens, UniProt P40337)
T1 construct: made in house
Assay: Isothermal titration calorimetry (ITC)
Assay type: binding
Conditions: 1a to VBC complex
Experimental: HEK293 cells were treated with vehicle DMSO (1% for 2 h), 1a (0.3, 1, 3, 6 and 9 μM for 2 h), VH298 (100 μM for 2 h), MG132 (20 μM for 3 h), or FG-4592 (100 μM for 2 h) before lysis. Cell lysates were collected and incubated with VHL antibody overnight at 4° C. The proteins were immunoprecipitated using agarose beads. The levels of hydroxy-HIF-1α co-precipitated with VHL were detected using a hydroxy-HIF-1α antibody, and then visualized using ECL Western Blotting Detection Reagent (GE Healthcare). (B) Cellular thermal shift assays to monitor cellular target engagement of VHL and HIF-1α. HEK293 cell lysates were treated with 1a (3 μM) at room temperature for 30 min and then heated at different temperature ranging from 48° C. to 68° C. for 5 min. The protein samples were collected and detected by Western blotting using either VHL or PHD2 antibodies. (C) Fluorescence-based protein thermal shift assay of VBC in the presence or absence of VH298 (100 μM) and complex 1a (100 μM). […] Data are expressed as means±SD (n=3 independent experiments for figures a and b, samples for figures c and e), P values were calculated using a two-sided t-test. *P<0.05, **P<0.01 vs. DMSO group.
After incubating HEK293 cell lysates with complex 1a followed by heating to set temperatures, VHL and PHD2 levels in the soluble fraction were quantitated by Western blotting.

**Q.** `COc1cc[n+]2c3c1ccc1c(OC)cc[n+](c13)[Ir-3]213([c]2ccccc2-c2cccc[n+]21)[c]1ccccc1-c1cccc[n+]13.F[P-](F)(F)(F)(F)F` [1a] was tested. Which “Binding stoichiometry (ITC)” value did it give?
**A.** 1:1
